According to patent publication US20230331652A1, “TRANS-CYCLOOCTENES WITH HIGH REACTIVITY AND FAVORABLE PHYSIOCHEMICAL PROPERTIES” (University of Delaware, priority 2020, published 2023):
Some results were stated once for a whole list of compounds, not compound by compound.

Assay: Stability in methanol-d4 (35 mM) by quantitative 1H NMR
Assay type: physicochemical
Settings: 35 mM in MeOD, 1 week, room temperature
Procedure: (§1) A solution of 14 (4.5 mg, 26 μmol) in methanol-d4 (750 μL) was monitored by quantitative ^1H NMR on a 600 MHz instrument to observe the decomposition of the trans-isomer over time. Methyl tert-butyl ether (3.1 μL, 26 μmol) was used as an internal standard. […] The results were plotted using Prism software (Version 8.00, GraphPad Software Inc). A waterfall plot of the ^1H NMR spectra is provided.
as §1, with “4a (3.3” for “14 (4.5”

For `OCC[C@]1(O)CC/C=C/CCC1` [Compound 14, 5-ax-Hydroxy-5-eq-(2-hydroxyethyl)-trans-cyclooctene], the “stability (fraction stable)” value was greater than 99%.
